Test results published in PMC13430412.
These are yes or no findings as the source states them, for the method shown. Binding seen in cells or lysates may run through a third protein. Some results given as binding are weak or reduced against the parent protein; the word gives no strength. Tags and fused reporters may be left off the sequences shown.

By UniProt entry, the sequences of proteins in these tests, tags left out.
UniProt Q709C8: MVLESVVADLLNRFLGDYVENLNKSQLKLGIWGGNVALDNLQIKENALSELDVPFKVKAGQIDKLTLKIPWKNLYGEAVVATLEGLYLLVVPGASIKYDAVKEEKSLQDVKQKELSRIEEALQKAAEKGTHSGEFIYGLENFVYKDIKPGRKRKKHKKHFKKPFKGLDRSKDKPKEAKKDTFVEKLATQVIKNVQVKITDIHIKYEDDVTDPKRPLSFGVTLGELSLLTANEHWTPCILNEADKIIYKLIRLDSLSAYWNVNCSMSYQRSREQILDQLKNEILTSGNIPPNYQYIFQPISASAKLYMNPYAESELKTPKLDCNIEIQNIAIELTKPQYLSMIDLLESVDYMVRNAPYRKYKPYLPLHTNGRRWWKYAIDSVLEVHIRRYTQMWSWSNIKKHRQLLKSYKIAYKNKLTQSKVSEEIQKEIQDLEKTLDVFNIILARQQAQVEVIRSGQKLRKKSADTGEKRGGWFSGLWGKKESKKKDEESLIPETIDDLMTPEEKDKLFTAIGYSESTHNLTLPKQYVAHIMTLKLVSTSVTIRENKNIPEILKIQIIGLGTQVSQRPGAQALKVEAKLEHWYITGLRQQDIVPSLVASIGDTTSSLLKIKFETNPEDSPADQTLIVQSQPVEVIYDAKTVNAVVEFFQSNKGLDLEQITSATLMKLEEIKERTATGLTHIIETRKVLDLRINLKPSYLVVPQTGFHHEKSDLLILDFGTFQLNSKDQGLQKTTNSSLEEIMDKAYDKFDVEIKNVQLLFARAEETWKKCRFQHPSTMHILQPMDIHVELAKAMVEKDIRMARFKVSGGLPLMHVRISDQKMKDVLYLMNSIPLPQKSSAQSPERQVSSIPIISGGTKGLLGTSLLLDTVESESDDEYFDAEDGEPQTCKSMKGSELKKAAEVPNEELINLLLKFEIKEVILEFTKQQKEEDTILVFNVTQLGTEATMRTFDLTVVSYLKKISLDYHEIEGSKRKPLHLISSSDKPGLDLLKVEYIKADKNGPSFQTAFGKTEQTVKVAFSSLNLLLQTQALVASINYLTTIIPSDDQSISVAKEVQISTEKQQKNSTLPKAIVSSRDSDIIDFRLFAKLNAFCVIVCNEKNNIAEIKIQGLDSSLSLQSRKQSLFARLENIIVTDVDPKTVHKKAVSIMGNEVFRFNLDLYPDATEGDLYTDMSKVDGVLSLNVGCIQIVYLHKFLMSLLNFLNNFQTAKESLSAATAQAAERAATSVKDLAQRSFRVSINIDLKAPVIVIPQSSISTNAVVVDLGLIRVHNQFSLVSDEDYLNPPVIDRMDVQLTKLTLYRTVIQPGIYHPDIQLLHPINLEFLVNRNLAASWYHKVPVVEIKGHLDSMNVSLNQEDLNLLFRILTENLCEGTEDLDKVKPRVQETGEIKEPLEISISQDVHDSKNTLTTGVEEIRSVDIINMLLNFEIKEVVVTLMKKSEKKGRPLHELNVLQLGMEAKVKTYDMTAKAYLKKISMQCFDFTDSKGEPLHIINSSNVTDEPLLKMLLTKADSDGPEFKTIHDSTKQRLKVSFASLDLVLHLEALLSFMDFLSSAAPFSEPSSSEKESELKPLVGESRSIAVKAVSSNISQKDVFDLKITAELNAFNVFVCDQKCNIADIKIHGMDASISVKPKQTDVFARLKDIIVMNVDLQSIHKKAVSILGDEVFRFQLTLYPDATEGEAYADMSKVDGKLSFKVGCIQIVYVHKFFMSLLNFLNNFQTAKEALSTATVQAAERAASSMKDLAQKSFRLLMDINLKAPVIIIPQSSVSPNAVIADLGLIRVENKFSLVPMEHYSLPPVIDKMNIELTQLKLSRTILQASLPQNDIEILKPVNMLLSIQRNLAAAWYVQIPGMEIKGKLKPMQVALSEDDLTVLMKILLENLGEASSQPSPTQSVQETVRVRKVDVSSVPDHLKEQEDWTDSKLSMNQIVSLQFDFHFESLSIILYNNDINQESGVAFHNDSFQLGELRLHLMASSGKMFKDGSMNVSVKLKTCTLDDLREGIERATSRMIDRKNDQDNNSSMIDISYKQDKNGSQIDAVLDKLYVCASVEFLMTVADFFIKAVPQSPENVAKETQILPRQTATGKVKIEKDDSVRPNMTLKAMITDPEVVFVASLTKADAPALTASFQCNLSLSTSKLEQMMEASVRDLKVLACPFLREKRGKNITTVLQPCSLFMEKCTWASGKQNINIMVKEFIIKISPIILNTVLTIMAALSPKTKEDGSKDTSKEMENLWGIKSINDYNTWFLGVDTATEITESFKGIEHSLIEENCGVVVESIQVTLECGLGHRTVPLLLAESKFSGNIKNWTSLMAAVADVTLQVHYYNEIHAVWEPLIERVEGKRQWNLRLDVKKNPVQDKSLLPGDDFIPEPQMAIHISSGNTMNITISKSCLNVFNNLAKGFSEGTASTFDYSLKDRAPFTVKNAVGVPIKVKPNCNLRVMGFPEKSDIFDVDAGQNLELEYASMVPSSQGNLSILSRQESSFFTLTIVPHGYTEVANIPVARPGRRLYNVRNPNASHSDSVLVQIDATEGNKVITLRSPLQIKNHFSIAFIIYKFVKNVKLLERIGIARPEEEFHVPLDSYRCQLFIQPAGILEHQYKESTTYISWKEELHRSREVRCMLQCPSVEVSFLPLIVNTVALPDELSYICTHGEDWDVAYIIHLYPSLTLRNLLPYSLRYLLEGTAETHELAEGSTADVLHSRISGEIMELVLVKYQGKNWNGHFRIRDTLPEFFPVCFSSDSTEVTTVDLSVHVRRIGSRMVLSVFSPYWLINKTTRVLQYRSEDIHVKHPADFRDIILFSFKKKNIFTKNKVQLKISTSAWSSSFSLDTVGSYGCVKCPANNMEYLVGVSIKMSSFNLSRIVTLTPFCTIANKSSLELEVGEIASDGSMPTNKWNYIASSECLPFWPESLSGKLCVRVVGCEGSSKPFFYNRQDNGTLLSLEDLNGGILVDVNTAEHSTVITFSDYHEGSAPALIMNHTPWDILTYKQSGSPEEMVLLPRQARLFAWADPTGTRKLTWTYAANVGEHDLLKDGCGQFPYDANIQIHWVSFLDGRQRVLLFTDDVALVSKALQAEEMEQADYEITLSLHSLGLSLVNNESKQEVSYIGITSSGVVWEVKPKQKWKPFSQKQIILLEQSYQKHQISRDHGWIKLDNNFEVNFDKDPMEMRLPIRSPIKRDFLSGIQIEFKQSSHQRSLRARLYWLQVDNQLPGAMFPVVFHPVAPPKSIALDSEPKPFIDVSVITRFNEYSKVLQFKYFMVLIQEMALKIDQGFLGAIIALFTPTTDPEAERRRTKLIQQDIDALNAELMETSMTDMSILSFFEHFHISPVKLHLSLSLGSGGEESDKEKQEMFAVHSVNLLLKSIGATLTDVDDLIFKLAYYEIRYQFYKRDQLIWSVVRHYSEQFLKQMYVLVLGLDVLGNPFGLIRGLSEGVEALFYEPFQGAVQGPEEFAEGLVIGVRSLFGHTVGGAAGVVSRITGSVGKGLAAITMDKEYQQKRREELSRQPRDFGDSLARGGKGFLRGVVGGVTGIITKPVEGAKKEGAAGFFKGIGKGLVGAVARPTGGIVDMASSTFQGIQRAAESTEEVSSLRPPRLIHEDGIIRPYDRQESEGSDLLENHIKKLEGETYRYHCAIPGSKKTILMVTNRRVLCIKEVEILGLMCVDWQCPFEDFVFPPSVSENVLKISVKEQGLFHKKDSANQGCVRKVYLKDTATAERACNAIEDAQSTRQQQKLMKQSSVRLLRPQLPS

Biological target: T1, FLAG-VAPA (UniProt Q9P0L0)
T1 sequence: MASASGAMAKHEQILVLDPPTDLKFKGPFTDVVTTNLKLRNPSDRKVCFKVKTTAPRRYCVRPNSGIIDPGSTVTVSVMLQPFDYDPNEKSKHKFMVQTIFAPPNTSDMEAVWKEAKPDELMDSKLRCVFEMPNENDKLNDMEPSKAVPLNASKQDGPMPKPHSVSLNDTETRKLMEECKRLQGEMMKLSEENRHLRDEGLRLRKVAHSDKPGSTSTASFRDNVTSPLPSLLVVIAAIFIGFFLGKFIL
Test: co-IP; HEK293T cells transfected with FLAG-VAPA, treated 1 min with 1 μM thapsigargin or DMSO; anti-FLAG M2 magnetic beads; western blot for endogenous VPS13C

binding: binds
Substance: endogenous VPS13C (HEK293T cells) (from UniProt Q709C8 1-3753)
